Results are given in words; binding and its absence hold for the method and conditions named. Some results given as binding are weak or reduced against the parent protein; the word gives no strength. Sequences can lack the tags named with a protein.
What was measured:
[1] = molecular target: T1, GST-UPF1hel (human) (UniProt Q92900); test: pull-down; GST-fused bait and prey (8-12 ug each) mixed in GST-PD buffer (20 mM Hepes pH 7.5, 100 mM NaCl, 10% glycerol, 0.1% NP40), 45 min room temperature, captured on Glutathione Sepharose at 4 C, eluted with glutathione; SDS-PAGE, Coomassie; both purified
T1 sequence: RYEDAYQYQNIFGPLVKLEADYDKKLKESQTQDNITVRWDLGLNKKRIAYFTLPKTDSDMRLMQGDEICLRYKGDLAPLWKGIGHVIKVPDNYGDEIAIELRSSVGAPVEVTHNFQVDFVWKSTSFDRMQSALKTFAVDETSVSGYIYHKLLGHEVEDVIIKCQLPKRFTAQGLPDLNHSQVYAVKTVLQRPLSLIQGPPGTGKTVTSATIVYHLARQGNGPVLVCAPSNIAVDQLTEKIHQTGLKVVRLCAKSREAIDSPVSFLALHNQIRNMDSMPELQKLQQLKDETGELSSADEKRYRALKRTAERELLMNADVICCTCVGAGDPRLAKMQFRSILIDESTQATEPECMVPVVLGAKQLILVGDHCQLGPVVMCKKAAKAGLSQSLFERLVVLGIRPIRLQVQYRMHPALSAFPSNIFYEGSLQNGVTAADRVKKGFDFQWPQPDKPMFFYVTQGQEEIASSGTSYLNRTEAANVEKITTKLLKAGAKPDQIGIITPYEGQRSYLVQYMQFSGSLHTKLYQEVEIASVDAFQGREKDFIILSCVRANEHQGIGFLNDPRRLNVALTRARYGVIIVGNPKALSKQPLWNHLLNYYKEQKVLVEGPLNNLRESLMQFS

[2] = molecular target: T2, Flag-tagged human MOV10 (full length) (human) (UniProt Q9HCE1); test: co-IP; Flag-tagged bait immunopurified from HEK293 lysate on anti-Flag M2 agarose, 4-8 ug purified prey added for 45 min; washed with 20 mM Hepes pH 7.5, 70 mM NaCl, 10% glycerol, 1 mM MgCl2, 1 uM ZnCl2; SDS-PAGE, Coomassie; without RNase A; both purified
T2 sequence: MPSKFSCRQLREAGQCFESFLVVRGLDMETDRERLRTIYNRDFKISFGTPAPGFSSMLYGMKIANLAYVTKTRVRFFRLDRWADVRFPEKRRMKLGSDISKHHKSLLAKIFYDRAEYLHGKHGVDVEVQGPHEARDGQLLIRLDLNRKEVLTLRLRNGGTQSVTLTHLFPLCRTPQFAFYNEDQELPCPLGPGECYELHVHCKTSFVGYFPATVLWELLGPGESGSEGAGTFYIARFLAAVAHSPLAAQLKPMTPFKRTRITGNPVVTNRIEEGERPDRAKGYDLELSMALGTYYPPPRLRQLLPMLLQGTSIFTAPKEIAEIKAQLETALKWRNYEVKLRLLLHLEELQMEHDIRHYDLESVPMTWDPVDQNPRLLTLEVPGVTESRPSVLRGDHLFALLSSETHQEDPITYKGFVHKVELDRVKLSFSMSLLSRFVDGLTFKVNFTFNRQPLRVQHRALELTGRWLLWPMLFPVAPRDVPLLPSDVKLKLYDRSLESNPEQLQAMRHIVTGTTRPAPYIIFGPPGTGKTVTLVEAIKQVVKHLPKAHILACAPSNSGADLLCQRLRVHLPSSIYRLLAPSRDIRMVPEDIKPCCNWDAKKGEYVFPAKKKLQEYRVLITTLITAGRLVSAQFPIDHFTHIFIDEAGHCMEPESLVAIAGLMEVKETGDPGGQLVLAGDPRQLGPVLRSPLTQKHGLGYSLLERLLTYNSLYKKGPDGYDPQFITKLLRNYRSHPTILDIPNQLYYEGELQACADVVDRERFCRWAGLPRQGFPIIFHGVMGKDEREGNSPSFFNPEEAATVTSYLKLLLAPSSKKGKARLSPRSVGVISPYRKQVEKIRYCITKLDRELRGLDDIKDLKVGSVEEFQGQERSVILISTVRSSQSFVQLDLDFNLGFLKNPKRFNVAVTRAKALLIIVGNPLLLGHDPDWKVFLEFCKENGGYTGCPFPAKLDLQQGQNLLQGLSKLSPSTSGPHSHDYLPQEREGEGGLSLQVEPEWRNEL

[3] = molecular target: T3, Flag-tagged full-length UPF1 (human) (UniProt Q92900); test: as above
T3 sequence: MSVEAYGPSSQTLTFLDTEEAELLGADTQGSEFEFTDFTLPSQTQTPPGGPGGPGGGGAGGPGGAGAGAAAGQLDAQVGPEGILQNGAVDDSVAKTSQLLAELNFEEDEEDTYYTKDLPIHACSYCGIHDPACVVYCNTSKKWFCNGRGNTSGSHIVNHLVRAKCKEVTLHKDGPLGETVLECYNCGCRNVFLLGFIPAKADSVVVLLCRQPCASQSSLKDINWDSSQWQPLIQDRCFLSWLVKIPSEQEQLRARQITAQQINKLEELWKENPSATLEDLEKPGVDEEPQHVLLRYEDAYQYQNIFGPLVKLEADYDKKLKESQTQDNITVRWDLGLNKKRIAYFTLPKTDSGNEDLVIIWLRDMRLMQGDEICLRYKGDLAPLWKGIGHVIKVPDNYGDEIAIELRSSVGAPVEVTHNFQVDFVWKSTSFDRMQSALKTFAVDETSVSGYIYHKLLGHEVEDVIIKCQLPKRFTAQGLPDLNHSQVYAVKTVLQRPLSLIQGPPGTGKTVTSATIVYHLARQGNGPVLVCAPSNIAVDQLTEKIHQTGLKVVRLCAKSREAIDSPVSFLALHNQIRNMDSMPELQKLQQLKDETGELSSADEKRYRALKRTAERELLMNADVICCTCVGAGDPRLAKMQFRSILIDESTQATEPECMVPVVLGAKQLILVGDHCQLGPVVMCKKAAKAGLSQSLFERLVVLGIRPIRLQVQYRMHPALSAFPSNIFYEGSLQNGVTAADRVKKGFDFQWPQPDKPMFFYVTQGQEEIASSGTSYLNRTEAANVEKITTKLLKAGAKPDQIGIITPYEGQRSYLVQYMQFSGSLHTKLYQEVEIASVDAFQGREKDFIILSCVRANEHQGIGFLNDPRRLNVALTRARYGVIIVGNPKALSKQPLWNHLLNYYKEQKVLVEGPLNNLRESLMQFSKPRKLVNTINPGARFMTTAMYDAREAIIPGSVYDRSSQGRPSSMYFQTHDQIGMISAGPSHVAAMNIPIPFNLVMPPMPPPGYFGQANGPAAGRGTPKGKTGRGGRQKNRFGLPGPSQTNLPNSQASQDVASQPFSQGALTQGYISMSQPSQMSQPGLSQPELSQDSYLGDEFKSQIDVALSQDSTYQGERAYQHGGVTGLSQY

[4] = molecular target: T2, Flag-tagged human MOV10 (full length) (human); test: co-IP; as a2, but cell lysates treated with RNase A (60 ug/uL, 10 min, 25 C); SDS-PAGE, Coomassie, densitometry of the UPF2 band; both purified
[5] = molecular target: T3, Flag-tagged full-length UPF1 (human); test: as above
[6] = molecular target: T4, Flag-MOV10NTD (human) (UniProt Q9HCE1); test: as above
T4 sequence: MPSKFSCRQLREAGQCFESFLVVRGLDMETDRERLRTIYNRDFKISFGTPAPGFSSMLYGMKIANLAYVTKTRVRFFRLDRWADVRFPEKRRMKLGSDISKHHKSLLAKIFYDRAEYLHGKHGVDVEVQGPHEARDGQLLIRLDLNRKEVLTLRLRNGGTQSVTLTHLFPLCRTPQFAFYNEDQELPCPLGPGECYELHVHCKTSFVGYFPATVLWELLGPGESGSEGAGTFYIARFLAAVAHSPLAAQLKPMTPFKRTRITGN

binding [2]: binds weakly | binding [3]: binds | binding [4]: binds | binding [5]: binds | binding [6]: binds
B1: UPF2 (near full-length variant, residues 121-1227) (domain or fragment, human, UniProt Q9HAU5 121-1227, looked up)
chain: MKEKEESIQLHQEAWERHHLRKELRSKNQNAPDSRPEENFFSRLDSSLKKNTAFVKKLKTITEQQRDSLSHDFNGLNLSKYIAEAVASIVEAKLKISDVNCAVHLCSLFHQRYADFAPSLLQVWKKHFEARKEEKTPNITKLRTDLRFIAELTIVGIFTDKEGLSLIYEQLKNIINADRESHTHVSVVISFCRHCGDDIAGLVPRKVKSAAEKFNLSFPPSEIISPEKQQPFQNLLKEYFTSLTKHLKRDHRELQNTERQNRRILHSKGELSEDRHKQYEEFAMSYQKLLANSQSLADLLDENMPDLPQDKPTPEEHGPGIDIFTPGKPGEYDLEGGIWEDEDARNFYENLIDLKAFVPAILFKDNEKSCQNKESNKDDTKEAKESKENKEVSSPDDLELELENLEINDDTLELEGGDEAEDLTKKLLDEQEQEDEEASTGSHLKLIVDAFLQQLPNCVNRDLIDKAAMDFCMNMNTKANRKKLVRALFIVPRQRLDLLPFYARLVATLHPCMSDVAEDLCSMLRGDFRFHVRKKDQINIETKNKTVRFIGELTKFKMFTKNDTLHCLKMLLSDFSHHHIEMACTLLETCGRFLFRSPESHLRTSVLLEQMMRKKQAMHLDARYVTMVENAYYYCNPPPAEKTVKKKRPPLQEYVRKLLYKDLSKVTTEKVLRQMRKLPWQDQEVKDYVICCMINIWNVKYNSIHCVANLLAGLVLYQEDVGIHVVDGVLEDIRLGMEVNQPKFNQRRISSAKFLGELYNYRMVESAVIFRTLYSFTSFGVNPDGSPSSLDPPEHLFRIRLVCTILDTCGQYFDRGSSKRKLDCFLVYFQRYVWWKKSLEVWTKDHPFPIDIDYMISDTLELLRPKIKLCNSLEESIRQVQDLEREFLIKLGLVNDKDSKDSMTEGENLEEDEEEEEGGAETEEQSGNESEVNEPEEEEGSDNDDDEGEEEEEENTDYLTDSNKENETDEENTEVMIKGGGLKHVPCVEDEDFIQALDKMMLENLQQRSGESVKVHQLDVAIPLHLKSQLRKGPPLGGGEGEAESADTMPFVMLTRKGNKQQFKILNVPMSSQLAANHWNQQQAEQEERMRMKKLTLDINERQEQED
notes: UPF2, human, residues 121-1227; also called near full-length UPF2
binding [1]: no binding (tested: 8-12 ug of bait and of prey in 40 ul)

From article PMC12305709, “Functional investigation of the RNA helicase MOV10 with respect to its interplay with factors involved in nonsense-mediated mRNA decay” (The Journal of Biological Chemistry, 2025)
